Experimental data: publication PMC8429736, “Pharmacological characterization of mutant huntingtin aggregate-directed PET imaging tracer candidates” (Scientific Reports, 2021)
Some entries of the source have several records that differ or are many. Only these are listed. There may be further records. Values that stand side by side do not match, cause unknown; some may be repeats, others may stem from another dose, organism or construct than stated.

System: beta amyloid/tau aggregates in post-mortem AD patient brain homogenates
Assay: ADbh RBA competition format
Settings: radioligand 4, compound 1 µM, tested as the radiolabelled form

SMILES: COc1ccc(NC(=O)c2ccn3c(n2)nc2ccccc23)cn1
- inhibition at 1 µM: < 5% and 5%
